According to patent US20060240417:
For part of these data: A weaker result is weaker than the reference pair of the same experiment. For part of these data: Where a protein sequence is shown, tags need not be part of it.

What was measured:
Assay in all cases: activity in cells
p73beta = test system: T1, p73beta; conditions: luciferase reporter in SAOS-2; notably augmented; protein in cells; protein details: HA tag; only the site is given
T1 sequence (looked up, limits assumed): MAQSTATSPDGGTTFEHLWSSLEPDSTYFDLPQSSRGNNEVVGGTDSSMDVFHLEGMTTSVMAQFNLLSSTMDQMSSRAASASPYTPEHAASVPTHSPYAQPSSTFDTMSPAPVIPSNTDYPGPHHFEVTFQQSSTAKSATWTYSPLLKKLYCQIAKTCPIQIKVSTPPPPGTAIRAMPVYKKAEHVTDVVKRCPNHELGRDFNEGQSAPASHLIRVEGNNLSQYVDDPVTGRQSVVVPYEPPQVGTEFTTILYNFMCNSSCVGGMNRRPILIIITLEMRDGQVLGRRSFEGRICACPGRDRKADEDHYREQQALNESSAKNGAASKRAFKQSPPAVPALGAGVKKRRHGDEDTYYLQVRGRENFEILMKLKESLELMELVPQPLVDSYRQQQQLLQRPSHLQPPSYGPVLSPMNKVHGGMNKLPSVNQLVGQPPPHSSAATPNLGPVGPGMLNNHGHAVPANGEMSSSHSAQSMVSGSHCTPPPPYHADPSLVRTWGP

p73alpha = biological target: T2, p73alpha (UniProt O15350); conditions: luciferase reporter in SAOS-2; notably augmented; protein in cells; protein details: HA tag; only the site is given
T2 sequence (looked up, limits assumed): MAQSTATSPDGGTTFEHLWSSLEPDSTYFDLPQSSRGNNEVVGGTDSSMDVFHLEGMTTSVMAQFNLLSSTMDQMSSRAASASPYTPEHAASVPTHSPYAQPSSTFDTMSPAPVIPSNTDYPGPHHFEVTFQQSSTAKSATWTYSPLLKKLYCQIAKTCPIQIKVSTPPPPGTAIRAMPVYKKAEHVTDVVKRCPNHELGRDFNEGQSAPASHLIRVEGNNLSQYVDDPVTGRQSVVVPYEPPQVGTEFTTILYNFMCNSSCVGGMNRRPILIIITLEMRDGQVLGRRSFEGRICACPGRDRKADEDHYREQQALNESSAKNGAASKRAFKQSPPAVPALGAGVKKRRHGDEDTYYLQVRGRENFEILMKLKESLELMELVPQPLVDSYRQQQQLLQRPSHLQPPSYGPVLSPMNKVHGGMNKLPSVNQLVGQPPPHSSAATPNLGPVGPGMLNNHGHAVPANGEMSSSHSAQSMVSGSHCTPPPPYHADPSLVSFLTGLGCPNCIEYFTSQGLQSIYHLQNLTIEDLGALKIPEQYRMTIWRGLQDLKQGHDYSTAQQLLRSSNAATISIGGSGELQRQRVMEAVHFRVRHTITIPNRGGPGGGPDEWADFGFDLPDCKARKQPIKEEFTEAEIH

p53 = p53 (UniProt P04637); conditions: luciferase reporter in SAOS-2; low augmentation; protein in cells; only the site is given

GGGCAAGCTGAGGCCTGCCC (double strand) [deltaNp73P(-76/-57) p73-binding element]
activity on this sequence (p73beta): active
activity on this sequence (p73alpha): active
activity on this sequence (p53): less active
